Hit rate of the full screen: of about 2,300 compounds, about 1,400 (61%) were called active. So high a share suggests a set chosen from earlier hits. This list was built around the results that the source calls inconclusive (neither active nor inactive); the mix of calls is not that of the screen. Calls follow the shape of the dose curve; as a rule, active = well fitted inhibition curve with a large enough effect; inconclusive = small, poorly fitted or top-dose-only effect, or effect the other way; inactive = no such curve, though single readings can be large or run the other way. Potencies of inconclusive entries are doubtful fits and often do not repeat.
Test: Confirmation screen for delayed death inhibitors of the malarial parasite plastid, 96 hour incubation; also: nearly all actives have a fitted effect of over 60% in size
Details: P. falciparum luciferase growth in erythrocytes; series mostly up to 28.7 µM; activity change, negative = inhibition: at the top concentration
Outline: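 Two-generation (96 h, 37 C) exposure of P. falciparum carrying an integrated firefly luciferase reporter in erythrocytes, 0.1% parasitemia and 2% hematocrit final, Albumax-supplemented RPMI. Luminescence decrease measures growth inhibition.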
In the case of `COC(=O)Cc1[nH]n(-c2nc3ccccc3s2)c(=O)c1C(C)=Nc1ccc(OC)cc1`, the Potency is reported as inconclusive: 3.98 µM [activator, full curve]. For `O=C(O)c1cc(-c2ccc3ccccc3c2)nc2ccc(F)cc12`, the Potency was inconclusive: 0.562 µM [inhibitor, full curve, poor fit]. With `CCC1=Nc2cc(C(=O)NCCN3CCCC3)ccc2Sc2ccccc21` the Potency was inconclusive: 15.8 µM [inhibitor, partial curve, poor fit]. In the case of `O=c1oc2ccccc2c(O)c1CN1CCCCC1`, the “activity change, negative = inhibition” value is reported as inactive: 0.904%. With `C=CCN=c1scc(-c2ccccc2)n1/N=C/c1ccccn1` the Potency was inconclusive: 10 µM [inhibitor, partial curve, poor fit]. For `O=C(Cc1cn2ccsc2n1)Nc1nc2c(s1)CCCC2`, the “activity change, negative = inhibition” value was inactive: 8.57%. For `Cc1ncoc1C(=O)NC1CC(C)(C)Cc2c1cnn2-c1ccccc1` (stereo not given), the Potency was inconclusive: 8.91 µM [inhibitor, partial curve, poor fit]. With `O=c1[nH]c(C(F)(F)F)nc2ccc3ccccc3c12` the “activity change, negative = inhibition” value was inactive: 26.6%. For `CC1CCN(C(=O)C2CCN(c3ncnc4c3nc3n4CCCCC3)CC2)CC1`, the Potency was inconclusive: 10 µM [inhibitor, partial curve]. For `CCN(CC)CCNC(=O)C1c2cc(OC)c(OC)cc2C(=O)N2CCc3ccccc3C12` (stereo not given), the Potency was active: 2.24 µM. In the case of `CCc1nn2c(=O)cc(COc3cccc(NC(=O)c4ccco4)c3)nc2s1`, the Potency is reported as active: 10 µM. For `Cc1cccc(C(=O)Nc2ccc3ccccc3c2)c1`, the Potency was inconclusive: 3.16 µM [activator, full curve]. For `O=C(Nc1ncc(Cc2ccccc2Cl)s1)C1CCCO1` (stereo not given), the Potency was inconclusive: 11.2 µM [activator, partial curve]. For `Nc1cccc2c1C(=O)N(C(=O)/C=C/c1ccc(F)cc1)C2=O`, the “activity change, negative = inhibition” value was inactive: 9.14%. In the case of `COc1ccc(C(C)(C)C)cc1NC(=O)c1[nH]c(C)c(C(C)=O)c1C`, the Potency is reported as active: 4.47 µM. In the case of `Cc1onc(-c2c(Cl)cccc2Cl)c1C(=O)N=C(N)N1CC(C)OC(C)C1` (stereo not given), the Potency is reported as active: 7.08 µM. In the case of `CCOc1ccc2nc(NCCNC(=O)C(C)C)c(C)cc2c1`, the Potency is reported as inconclusive: 15.8 µM [inhibitor, single point]. In the case of `CC(=O)c1ccc(OCc2cc(C(=O)NC(C)c3cnn(C)c3)no2)cc1` (stereo not given), the Potency is reported as inconclusive: 11.2 µM [inhibitor, partial curve, poor fit]. With `COc1ccc(CN=C(Nc2ccccc2)SC2CC(=O)NC2=O)cc1` (stereo not given) the Potency was inconclusive: 12.6 µM [inhibitor, partial curve]. For `COCCN(C(=S)Nc1cc(C)cc(C)c1)C(C)c1ccco1` (stereo not given), the Potency was inconclusive: 17.8 µM [inhibitor, partial curve, poor fit].
% is scaled to controls: 0 for no effect and ±100 for the full control effect; potency is read from the fitted curve at half-maximal effect.
